PubChem BioAssay AID504808 | Drosophila RNAi Screening Center, 2011

- Test: 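Genes whose loss lifts activity of an E2F-responsive reporter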 (primary screen)
- System: Drosophila S2 cells
- Knock-down reagent: long dsRNA against Drosophila genes
- Measured: 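Dual luciferase plate measurements; E2F-specific signal taken as firefly over Renilla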
- Scale: E2F firefly: higher = more E2F reporter activity; Renilla normaliser: higher = more normaliser reporter signal
- Call rule: 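a knock-down counted as active when the firefly/Renilla E2F signal rose above 50%, a threshold chosen arbitrarily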
The screen tested about 21,000 reagents; below is a random part of those that have a named target and a result. Over the whole deposit, 18 (0.084%) got an active call. 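Raw counts without plate normalisation, one of two replicates; the ratio scores behind the calls were not deposited.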 A number with no mark means an inactive call. Reagent sequences are not shown. Not stated in the record: the amount of reagent, the time to read-out.

CG15213 [DRSC10213] → E2F firefly, rep 1: 1.03e5; Renilla normaliser, rep 1: 4259
tty (tweety) [DRSC20588] → E2F firefly, rep 1: 1.62e5; Renilla normaliser, rep 1: 4956
CG12609 [DRSC19473] → E2F firefly, rep 1: 1.35e5; Renilla normaliser, rep 1: 5236
CG9459 [DRSC16496] → E2F firefly, rep 1: 1.39e5; Renilla normaliser, rep 1: 6430
Vha36-3 (Vacuolar H[+] ATPase 36kD subunit 3) [DRSC18615] → E2F firefly, rep 1: 1.29e5; Renilla normaliser, rep 1: 5826
CG34109 [DRSC02169] → E2F firefly, rep 1: 1.53e5; Renilla normaliser, rep 1: 5743
CG34109 [DRSC02224] → E2F firefly, rep 1: 1.59e5; Renilla normaliser, rep 1: 4691
CG34109 [DRSC02225] → E2F firefly, rep 1: 1.61e5; Renilla normaliser, rep 1: 4785
CG12003 [DRSC08214] → E2F firefly, rep 1: 1.06e5; Renilla normaliser, rep 1: 4119
Camta (Calmodulin-binding transcription activator) [DRSC06440] → E2F firefly, rep 1: 1.35e5; Renilla normaliser, rep 1: 4474
Camta (Calmodulin-binding transcription activator) [DRSC06441] → E2F firefly, rep 1: 1.59e5; Renilla normaliser, rep 1: 4922
Camta (Calmodulin-binding transcription activator) [DRSC07272] → E2F firefly, rep 1: 2756; Renilla normaliser, rep 1: 217
CG18135 [DRSC10295] → E2F firefly, rep 1: 81751; Renilla normaliser, rep 1: 3654
ND-ACP [DRSC08724] → E2F firefly, rep 1: 1.12e5; Renilla normaliser, rep 1: 4288
CG7031 [DRSC16178] → E2F firefly, rep 1: 50166; Renilla normaliser, rep 1: 4075
sob [DRSC00838] → E2F firefly, rep 1: 1.46e5; Renilla normaliser, rep 1: 5224
CG3819 [DRSC10378] → E2F firefly, rep 1: 1.23e5; Renilla normaliser, rep 1: 5682
CG32436 [DRSC11683] → E2F firefly, rep 1: 1.23e5; Renilla normaliser, rep 1: 5604
CG32436 [DRSC11796] → E2F firefly, rep 1: 1.32e5; Renilla normaliser, rep 1: 6563
CG17327 [DRSC15225] → E2F firefly, rep 1: 1.14e5; Renilla normaliser, rep 1: 5216
Mgat3 [DRSC01305] → E2F firefly, rep 1: 1.31e5; Renilla normaliser, rep 1: 6573
Mst77F (Male-specific transcript 77F) [DRSC11871] → E2F firefly, rep 1: 1.31e5; Renilla normaliser, rep 1: 7362
Pp2C1 (Protein phosphatase 2C) [DRSC18699] → E2F firefly, rep 1: 7674; Renilla normaliser, rep 1: 844
Gr47a (Gustatory receptor 47a) [DRSC06221] → E2F firefly, rep 1: 1.36e5; Renilla normaliser, rep 1: 5197
ckd (cracked) [DRSC08418] → E2F firefly, rep 1: 99501; Renilla normaliser, rep 1: 4739
Art6 (Arginine methyltransferase 6) [DRSC16583] → E2F firefly, rep 1: 1.10e5; Renilla normaliser, rep 1: 6205
DIP2 (DISCO Interacting Protein 2) [DRSC08582] → E2F firefly, rep 1: 71256; Renilla normaliser, rep 1: 3390
H15 [DRSC03339] → E2F firefly, rep 1: 1.67e5; Renilla normaliser, rep 1: 5574

3 entries from above, arranged by “Renilla normaliser, rep 1”, low to high.
CG34109 [DRSC02224] → E2F firefly, rep 1: 1.59e5; Renilla normaliser, rep 1: 4691
CG34109 [DRSC02225] → E2F firefly, rep 1: 1.61e5; Renilla normaliser, rep 1: 4785
CG34109 [DRSC02169] → E2F firefly, rep 1: 1.53e5; Renilla normaliser, rep 1: 5743
